# Percent effect of library compounds

Protein sequences, listed by entry. Tags and fused reporters are not part of them. Residues count along the entry.
UniProt P9WFT3, whole entry: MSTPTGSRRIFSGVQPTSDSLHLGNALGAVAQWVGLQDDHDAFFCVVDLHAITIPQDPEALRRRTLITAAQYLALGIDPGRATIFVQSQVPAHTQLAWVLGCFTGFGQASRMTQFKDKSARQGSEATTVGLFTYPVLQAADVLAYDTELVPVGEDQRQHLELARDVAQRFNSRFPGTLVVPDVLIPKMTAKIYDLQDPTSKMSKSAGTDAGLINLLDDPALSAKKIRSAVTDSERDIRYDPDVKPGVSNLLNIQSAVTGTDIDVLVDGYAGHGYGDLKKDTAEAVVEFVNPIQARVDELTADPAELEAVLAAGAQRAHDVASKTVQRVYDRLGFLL
UniProt Q4DA54, 1-478: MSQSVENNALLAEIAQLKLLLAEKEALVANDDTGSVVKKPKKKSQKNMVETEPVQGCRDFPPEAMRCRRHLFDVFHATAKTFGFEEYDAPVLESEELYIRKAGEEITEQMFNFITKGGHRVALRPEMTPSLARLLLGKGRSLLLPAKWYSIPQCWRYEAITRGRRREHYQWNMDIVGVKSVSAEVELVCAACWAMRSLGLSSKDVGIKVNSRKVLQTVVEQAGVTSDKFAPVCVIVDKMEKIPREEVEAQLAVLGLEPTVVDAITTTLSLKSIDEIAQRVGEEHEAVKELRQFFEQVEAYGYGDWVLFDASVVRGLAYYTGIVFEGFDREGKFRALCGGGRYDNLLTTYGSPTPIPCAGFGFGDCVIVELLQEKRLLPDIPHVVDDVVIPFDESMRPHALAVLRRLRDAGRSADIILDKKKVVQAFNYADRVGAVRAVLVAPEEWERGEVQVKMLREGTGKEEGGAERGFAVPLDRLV

From ChEMBL document CHEMBL3988442, “University of Dundee, Small-Polar-MMV Screening Library” (2021).

MtTrpRS: 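Enzyme assay of tryptophanyl-tRNA synthetase; the read-out is not stated. Target: Tryptophan-tRNA ligase, Mycobacterium tuberculosis (UniProt P9WFT3). Compounds at 10 µM. Direction is not recorded; retested compounds ran higher, which suggests that high means inhibition. Size under these conditions: about 65,000 compounds, about 64 of them at 50% or above in at least one test.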
Leishmania in macrophages: 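Cell assay of Leishmania donovani living inside macrophages; the read-out is not stated. Tested at 30 µM. Direction is inferred from retests: higher values go with stronger inhibition. About 69,000 compounds were tested under these conditions; 1.5% (about 1,000) showed 50% or more at least once.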
TcHisRS: 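Histidine-tRNA ligase, Trypanosoma cruzi CL Brener (UniProt Q4DA54). Enzyme assay of histidyl-tRNA synthetase; the read-out is not stated. Concentration: 30 µM. The record gives no direction; compounds that gave an IC50 in retests scored well above the rest, so higher reads as stronger inhibition. Of about 69,000 compounds tested this way, about 31 (0.045%) reached 50% or more in at least one test.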

The filed quantity is “Percent Effect” (%).
The record does not define 0% and 100%; most values in the screen are far below 50% and negative numbers occur (in some assays of this library far below -100).
The compounds are a random part of those screened.
Two or more numbers in one place are separate tests of the same structure; such repeats can differ widely.
A dash means the value is not listed here; it may have been measured.

| structure | MtTrpRS | Leishmania in macrophages | TcHisRS |
|---|---|---|---|
| `Cl.Cl.c1cncc(OC[C@@H]2CCC[C@@]23CNCCO3)c1` | - | 17.05 | - |
| `COCC1CC2(CCN(Cc3cccc(C#N)c3)CC2)CN1C(C)C.O=C(O)C(F)(F)F.O=C(O)C(F)(F)F` (centres unmarked) | - | 13.06 | - |
| `[H][C@@]12CC[C@H](Oc3cccc(F)c3)[C@]1([H])CN(C(=O)c1ncccn1)C2` | - | 6.476 | - |
| `CC1=N[C@@]2(CC[C@@H]3CN(CC4CC4)C[C@@H]32)C(=O)N1CC(C)C` | -6.008 | - | 7.882 |
| `NC(=O)CC1CCN(S(=O)(=O)c2cnn(-c3ccccc3)c2)CC1` | -1.445 | 35.34 | 9.091 |
| `CC(=O)N1CCOC(CNC(=O)c2cccc(CCC(C)(C)O)c2)C1` (centres unmarked) | 0.6369 | -3.273 | 1.064 |
| `COCC1CN(C(=O)c2cccs2)Cc2nccn2C1` (centres unmarked) | 0.07582 | -47.45 | 6.122 |
| `NC(=O)C1CCN(C(=O)NCc2ccccc2-n2cccn2)CC1` | -7.092 | 34.51 | 7.345 |
| `CC(=O)Nc1cc2c(cc1C)OCO2` | -2.083 | 3.338 | -3.627 |
| `CCOC1CCN(C(=O)NCCN(C)C(=O)OC(C)(C)C)CC1` | -1.122 | -6.098 | 1.571 |
| `O=C(c1cc(Cl)c[nH]c1=O)N1C[C@@H]2CC[C@H](C1)N(Cc1ccccc1)C2` | -2.886 | - | 8.04 |
| `CN1CCN(Cc2nc3c(s2)CCCC3)[C@H]2CS(=O)(=O)C[C@H]21` | 5.405 | - | 8.287 |
| `Cc1nc(C)n(Cc2cccc(NC3CCN(C)C3=O)c2)n1` (centres unmarked) | -3.226 | 26.3 | 1.299 |
| `O=C(O)C(F)(F)F.[H][C@@]12CCN(C(=O)CC3CC3)C[C@]1(COc1ncccc1F)CCO2` | - | 7.35 | - |
| `CNC(=O)c1ccc(OC)c(NCc2ncc(-c3cccs3)o2)c1` | 7.584 | -56.76 | 3.067 |
| `O=C([C@H]1CCCO1)N1CC[C@@H](O)[C@@H]1Cc1ccccc1` | -1.658 | -1.438 | -88.94 |
| `Cn1cnnc1C1CCCN(C(=O)NCCn2ccnc2)C1` (centres unmarked) | -3.046 | 12.4 | 4.571 |
| `O=C(Nc1cccc(CNCc2ccsc2)c1)C1CC1` | 11.8 | - | 3.207 |
| `FC(F)(F)c1cc(NCCCn2cccn2)nc(-c2cccnc2)n1` | 14.83 | -4.684 | 0 |
| `O=C(NC1CC1)N1C[C@H]2CN(Cc3cccc(F)c3)C(=O)[C@H]2C1` | -2.674 | - | 5.882 |
| `O=C(O)C(F)(F)F.O=C(O)C(F)(F)F.[H][C@@]12COC[C@]1([H])[C@@H](OCc1csc(C)n1)CN2CCOC` | - | 9.854 | - |
| `Cc1cccnc1CN1CCC(c2nnc(Cn3cccn3)n2C)CC1` | -4.55 | 9.994 | 4.065 |
| `COc1cc(C)sc1C(=O)NCCC(=O)N(C)Cc1ccccc1` | 1.947 | 28.69 | 1.478 |
| `O=C(O)CC(O)(CC(=O)O)C(=O)O.c1cncc(-c2nccc(CN3CCC(N4CCCCC4)CC3)n2)c1` | - | -10.16 | - |
| `CCN(C)c1ncnc2c1CCN(Cc1ccsc1)CC2.O=C(O)C(F)(F)F.O=C(O)C(F)(F)F` | - | 36.04 | - |
| `Cc1cc(C)n(C2CCN(Cc3c(-c4cc(C)on4)nn(C)c3Cl)C2)n1` (centres unmarked) | -2.916 | 25.47 | 3.061 |
| `CCNc1ncc(C(=O)N[C@H](C(N)=O)c2ccccc2)cn1` | 7.534 | -6.699 | 2.597 |
| `CCc1nnsc1C(=O)NCc1c(C)nn(CCOC)c1C` | 0.4955 | 30.98 | 3.59 |
| `O=C(c1cc(C2CCCCN2CCO)n[nH]1)N1CCOCC1.O=CO` (centres unmarked) | - | -5.533 | - |
| `COC[C@@]12CCO[C@@H]1CCN(C(=O)CCc1ccccc1Cl)C2` | 1.502 | - | 4.386 |
| `CCOc1ccc(-c2nc(CN(C)Cc3c(C)noc3C)cs2)cc1` | -2.882 | 16.51 | 4.433 |
| `Cc1nc2sccn2c1CN(CCCN(C)C)Cc1ccccn1` | 17.56 | - | 4.52 |
| `CCn1cnnc1C1CCN(C(=O)c2cnc(C3CC3)s2)CC1` | 2.911 | 22.09 | 1.504 |
| `Cc1ncccc1OC1(C(=O)NCCc2ccccn2)CCNCC1` | 33.69 | -8.909 | 1.163 |
| `CCCc1cc(N(CCOC)CC(F)F)n2ncnc2n1` | -4.139 | 13.14 | 4.242 |
| `CCc1cccc(OCCn2cccc(C#N)c2=O)c1` | -2.734 | 11.25 | 3.941 |
| `Cc1ccccc1Cn1cnc2oc(C)c(C(=O)O)c2c1=O` | 4.49 | 4.843 | 3.571 |
| `CS(=O)(=O)Cc1ccc(CNc2ncc(C#N)cc2Cl)cc1` | -3.152 | 19.17 | 3.158 |
| `Cc1cc(C2CCCCN2C(=O)CN2C(=O)OC(C)(C)C2=O)no1` (centres unmarked) | 5.433 | 36.03 | 9 |
| `Cc1cc(-c2cnc(NCc3cccnc3)nc2C(C)C)on1` | -1.233 | 29.34 | 1.639 |
| `CC(C)N(C)Cc1n[nH]c2c1CCN(C(=O)c1cc[nH]n1)C2` | -2.297 | 34.57 | 5.025 |
| `CN1CCC(NC(=O)Nc2ccc(Cl)c(F)c2)C1=O` (centres unmarked) | -6.909 | -17.96 | 5.806 |
| `c1cnnc(N2CCCC(NCc3nc(-c4ccsc4)no3)C2)c1` (centres unmarked) | 0.7158 | 12.92 | 4.167 |
| `Cn1nc2c(c1NC(=O)c1ccc(Cl)s1)CCC2` | 0.08937 | 10.42 | 2.646 |
| `Cc1ccc(C(=O)N2CCC3(CC2)CC(c2ccccc2)C(=O)N3)cn1.O=C(O)C(F)(F)F` (centres unmarked) | - | -10.03 | - |
| `CCN(CC)Cc1cn2c(n1)CN(C(=O)c1cc(C)on1)CC2` | 4.969 | - | -1.657 |
| `CN(C)CCNc1cc(-c2ccc[nH]c2=O)c2cc[nH]c2n1` | -0.7498 | 24.7 | 2.128 |
| `Cc1nc(N(C)C)nc(N(C)CCc2ccncc2)c1C` | 1.256 | 14.11 | 5.063 |
| `O=C(c1cccnc1O)N1CCN(Cc2ccccc2F)CC1` | 2.026 | -31.63 & -1.194 | 2.41 |
| `C/C=C(/C)C(=O)NS(=O)(=O)c1ccc(C(F)(F)F)cc1` | 6.311 | -2.602 | -0.9804 |
| `COc1ncccc1CNCc1c(C(C)C)nn(C)c1OC` | -5.513 | 22.54 | -0.5435 |
| `CC(c1nc(C2CC2)no1)N1CCN(Cc2ccccc2)CC1` (centres unmarked) | -0.6595 | 8.613 | 5 |
| `CCn1ccnc1CN1CCN(CCOc2ccc(C#N)cc2)CC1` | -6.316 | 31.28 | 4.094 |
| `CC(C)OCCN1CCN(c2ccc(Cl)cn2)CC1` | 4.361 | 17.57 | 8.19 |
| `CCC(=O)N1CCCC(c2ncc3c(n2)CCN(C)C3)C1` (centres unmarked) | - | 16.18 & 16.57 | 12.09 |
| `CC(c1ccccc1)N(C)C(=O)CN1CCN(c2cnccn2)CC1` (centres unmarked) | 0.6224 | 2.662 | 10.84 |
| `COc1ccc2c(c1)OCC(Cc1ccc(C)nc1N)C2` (centres unmarked) | 9.511 | -0.8362 | -2.116 |
| `COCCN1CCCN(C(=O)c2scnc2C)CC1` | 4.842 | 37.34 | 9.548 |
| `O=C(O)C(F)(F)F.[H][C@]12CN(Cc3csc(C)n3)C(=O)[C@@]1([H])CN(c1ncc(F)cn1)C2` | - | 0.4282 | - |
| `Cc1nc2[nH]cnc(NCCCN3CCOCC3)c-2n1` | 6.149 | -29.85 | 7.921 |
| `Cc1cccc(CN2CCC3(CCC(C(=O)N(C)C)O3)CC2)n1` (centres unmarked) | -4.07 | 12.05 | 0.9709 |
| `CN(Cc1ccccc1)CC1CC2(CO1)CN(Cc1cnn(C)c1)C2` (centres unmarked) | -5.657 | 18.24 & -0.7663 | 2.151 |
| `NCC(CO)Cc1cccc(OC(F)(F)F)c1` (centres unmarked) | -3.17 | 11.86 | -1.657 |
| `CCCC(C#N)NC(=O)CCCOc1cccc(F)c1` (centres unmarked) | 5.96 | 14.52 | 0.6024 |
| `[H][C@@]12C[C@@H](C(=O)NCC3CC3)N(C)[C@]1([H])CN(Cc1cccnc1OC)C2` | - | 13.32 | - |
| `CCN1C(=O)CCCC12CCCN(C(=O)c1ccsc1)C2` (centres unmarked) | 4.167 | 16.9 | -2.454 |
| `C=C(C)COc1ccccc1C(=O)N(C)C(C)c1c(C)n[nH]c1C` (centres unmarked) | -0.7874 | 16.66 | 6.061 |
| `Cc1nccn1C1(C(=O)O)CCN(Cc2ccc3occc3c2)CC1` | -0.5948 | 23.1 | 1.622 |
| `Cn1cc(C[C@H]2[C@H](O)CCN2Cc2ccc(F)cc2)cn1.O=C(O)C(F)(F)F` | - | 48.56 | - |
| `CC(C)(NCCOc1ccc(CC#N)cc1)c1nccs1` | -0.8043 | 23.72 | 1.587 |
| `COc1ccccc1CN1C(=O)O[C@@H]2CN(c3nc(C)cnc3C)C[C@@H]21` | -3.311 | - | 3.409 |
| `Cn1nc(COc2cncnc2)c2c1CCN(Cc1ccccn1)C2` | 11.18 | - | 8.046 |
| `CCc1nsc(NC2CCCn3nc(COC)nc32)n1` (centres unmarked) | 1.954 | 2.116 | 2.905 |
| `COC(=O)c1cc(NCC(=O)NC(N)=O)cc(C(F)(F)F)c1` | -1.487 | 10.64 | 4.865 |
| `Cc1nccn1-c1ccc(CNS(=O)(=O)N2CCC(C)CC2)cn1` | -3.539 | -13.08 | 11.39 |

The first 4 entries again:

structure	MtTrpRS	Leishmania in macrophages	TcHisRS
Cl.Cl.c1cncc(OC[C@@H]2CCC[C@@]23CNCCO3)c1	-	17.05	-
COCC1CC2(CCN(Cc3cccc(C#N)c3)CC2)CN1C(C)C.O=C(O)C(F)(F)F.O=C(O)C(F)(F)F (centres unmarked)	-	13.06	-
[H][C@@]12CC[C@H](Oc3cccc(F)c3)[C@]1([H])CN(C(=O)c1ncccn1)C2	-	6.476	-
CC1=N[C@@]2(CC[C@@H]3CN(CC4CC4)C[C@@H]32)C(=O)N1CC(C)C	-6.008	-	7.882